# Laboratory results reported in the supplement of paper PMC4604168 (melanoma cell lines).
# Some of the results follow. Many values rest on one well or one pass, so single values are uncertain.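 Imaging used 1,536-well plates; nuclei positive for cleaved PARP by antibody were divided by total DNA-stained nuclei to yield the apoptosis fraction. Doses for screening kept most cells viable, and cell lines differ markedly in resting and induced cleaved-PARP levels.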
# Legend:
# Assay in all cases: cleaved PARP positive nuclei fraction relative to DMSO control; melanoma cells; higher = more apoptosis
# Conditions in all cases: library dose: low library concentration; 72 h
# [1] = tested on: A101D
# [2] = tested on: A2058
# [3] = tested on: A375
# [4] = tested on: C32
# [5] = tested on: CBRC008 (line from a melanoma biopsy)
# [6] = tested on: CBRC013 (line from a melanoma biopsy)
# [7] = tested on: CBRC014 (line from a melanoma biopsy)
# [8] = tested on: CBRC016 (line from a melanoma biopsy)
# [9] = tested on: CBRC017 (line from a melanoma biopsy)
# [10] = tested on: 501Mel
compound,measurement,setting,value
"NC1(c2ccc(-c3nc4ccn5c(=O)[nH]nc5c4cc3-c3ccccc3)cc2)CCC1 + Cc1cc(N2CCOCC2)cc2[nH]c(-c3c(NC[C@@H](O)c4cccc(Cl)c4)cc[nH]c3=O)nc12 [BMS536924] (first compound 0.4 µM, partner dose 0.2 µM)",cleaved PARP positive nuclei fraction,[1],215%
same,cleaved PARP positive nuclei fraction,[2],106%
same,cleaved PARP positive nuclei fraction,[3],387%
same,cleaved PARP positive nuclei fraction,[4],202%
same,cleaved PARP positive nuclei fraction,[5],180%
same,cleaved PARP positive nuclei fraction,[6],123%
same,cleaved PARP positive nuclei fraction,[7],83.6%
same,cleaved PARP positive nuclei fraction,[8],72.4%
same,cleaved PARP positive nuclei fraction,[9],193%
"CCN(CC)CCNC(=O)c1c(C)[nH]c(/C=C2\C(=O)Nc3ccc(F)cc32)c1C [sunitinib] + COc1cc2ncnc(Nc3ccc(Oc4ccccc4)cc3)c2cc1OC [SrcI1] (first compound 0.4 µM, partner dose 2 µM)",cleaved PARP positive nuclei fraction,[10],74.5%
same,cleaved PARP positive nuclei fraction,[1],54.5%
same,cleaved PARP positive nuclei fraction,[2],200%
same,cleaved PARP positive nuclei fraction,[4],51.5%
same,cleaved PARP positive nuclei fraction,[5],61.6%
same,cleaved PARP positive nuclei fraction,[7],73.5%
same,cleaved PARP positive nuclei fraction,[8],16.8%
same,cleaved PARP positive nuclei fraction,[9],155%
"Cn1cnc2c(F)c(Nc3ccc(Br)cc3Cl)c(C(=O)NOCCO)cc21 [selumetinib] + O=C1NC(=O)/C(=C/c2ccc(-c3ccc(F)cc3O)o2)S1 [AS252424] (first compound 0.015 µM, partner dose 1 µM)",cleaved PARP positive nuclei fraction,[10],314%
same,cleaved PARP positive nuclei fraction,[1],19.5%
same,cleaved PARP positive nuclei fraction,[2],162%
same,cleaved PARP positive nuclei fraction,[4],91.2%
same,cleaved PARP positive nuclei fraction,[5],98.8%
same,cleaved PARP positive nuclei fraction,[7],118%
same,cleaved PARP positive nuclei fraction,[8],120%
same,cleaved PARP positive nuclei fraction,[9],179%
"CS(=O)(=O)c1ccc(C(=O)Nc2ccc(Cl)c(-c3ccccn3)c2)c(Cl)c1 [vismodegib] + CN(NC(=O)CC(=O)NN(C)C(=S)c1ccccc1)C(=S)c1ccccc1 [STA4783] (first compound 1 µM, partner dose 0.006 µM)",cleaved PARP positive nuclei fraction,[1],98.5%
same,cleaved PARP positive nuclei fraction,[2],119%
same,cleaved PARP positive nuclei fraction,[3],2840%
same,cleaved PARP positive nuclei fraction,[4],74.7%
same,cleaved PARP positive nuclei fraction,[5],1220%
same,cleaved PARP positive nuclei fraction,[6],181%
same,cleaved PARP positive nuclei fraction,[7],525%
same,cleaved PARP positive nuclei fraction,[8],180%
same,cleaved PARP positive nuclei fraction,[9],168%
"C[C@@H](N)c1ccc(C(=O)Nc2ccnc3[nH]ccc23)cc1 + O=C1NC(=O)/C(=C/c2ccc(-c3ccc(F)cc3O)o2)S1 [AS252424] (first compound 0.4 µM, partner dose 1 µM)",cleaved PARP positive nuclei fraction,[10],144%
same,cleaved PARP positive nuclei fraction,[1],26.4%
same,cleaved PARP positive nuclei fraction,[2],750%
same,cleaved PARP positive nuclei fraction,[4],1070%
same,cleaved PARP positive nuclei fraction,[5],92.7%
same,cleaved PARP positive nuclei fraction,[7],55.3%
same,cleaved PARP positive nuclei fraction,[8],75.9%
same,cleaved PARP positive nuclei fraction,[9],88%
"CCCCCCCCc1ccc(CCC(N)(CO)CO)cc1 [fingolimod] + CC(C)(C)c1cnc(CSc2cnc(NC(=O)C3CCNCC3)s2)o1 [SNS-032] (first compound 2 µM, partner dose 0.01 µM)",cleaved PARP positive nuclei fraction,[1],115%
same,cleaved PARP positive nuclei fraction,[2],62.9%
same,cleaved PARP positive nuclei fraction,[3],172%
same,cleaved PARP positive nuclei fraction,[4],121%
same,cleaved PARP positive nuclei fraction,[5],76.6%
same,cleaved PARP positive nuclei fraction,[6],126%
same,cleaved PARP positive nuclei fraction,[7],93.5%
same,cleaved PARP positive nuclei fraction,[8],47.3%
same,cleaved PARP positive nuclei fraction,[9],173%
"C[C@@H](N)c1ccc(C(=O)Nc2ccnc3[nH]ccc23)cc1 + CCN(CC)CCNC(=O)c1c(C)[nH]c(/C=C2\C(=O)Nc3ccc(F)cc32)c1C [sunitinib] (first compound 0.4 µM, partner dose 0.4 µM)",cleaved PARP positive nuclei fraction,[1],175%
same,cleaved PARP positive nuclei fraction,[2],299%
same,cleaved PARP positive nuclei fraction,[3],116%
same,cleaved PARP positive nuclei fraction,[4],80.2%
same,cleaved PARP positive nuclei fraction,[5],137%
same,cleaved PARP positive nuclei fraction,[7],96.7%
same,cleaved PARP positive nuclei fraction,[8],140%
same,cleaved PARP positive nuclei fraction,[9],123%
"CCCCCCCCc1ccc(CCC(N)(CO)CO)cc1 [fingolimod] + COc1ccc(COc2ccc(Cc3cnc(N)nc3N)cc2OC)cc1 [GW2580] (first compound 2 µM, partner dose 1 µM)",cleaved PARP positive nuclei fraction,[1],31.6%
same,cleaved PARP positive nuclei fraction,[2],159%
same,cleaved PARP positive nuclei fraction,[4],44.4%
same,cleaved PARP positive nuclei fraction,[5],123%
same,cleaved PARP positive nuclei fraction,[7],112%
same,cleaved PARP positive nuclei fraction,[8],53.5%
same,cleaved PARP positive nuclei fraction,[9],63.9%
"COc1ccc(C2=N[C@@H](c3ccc(Cl)cc3)[C@@H](c3ccc(Cl)cc3)N2C(=O)N2CCNC(=O)C2)c(OC(C)C)c1 [Nutlin-3] + CCCCCCCCCCCC1=C(O)C(=O)C=C(O)C1=O [Embelin] (first compound 0.1 µM, partner dose 1.2 µM)",cleaved PARP positive nuclei fraction,[1],23.2%
same,cleaved PARP positive nuclei fraction,[2],93.1%
same,cleaved PARP positive nuclei fraction,[4],93.5%
same,cleaved PARP positive nuclei fraction,[5],42.3%
same,cleaved PARP positive nuclei fraction,[7],76.3%
same,cleaved PARP positive nuclei fraction,[8],15.8%
same,cleaved PARP positive nuclei fraction,[9],88.3%
"NC(=O)c1ccc(N(C(N)=O)c2c(F)cccc2F)nc1-c1ccc(F)cc1F + CS(=O)(=O)c1ccc(C(=O)Nc2ccc(Cl)c(-c3ccccn3)c2)c(Cl)c1 [vismodegib] (first compound 0.4 µM, partner dose 1 µM)",cleaved PARP positive nuclei fraction,[1],79.6%
same,cleaved PARP positive nuclei fraction,[2],87.8%
same,cleaved PARP positive nuclei fraction,[3],32.8%
same,cleaved PARP positive nuclei fraction,[4],70.4%
same,cleaved PARP positive nuclei fraction,[5],57.2%
same,cleaved PARP positive nuclei fraction,[7],89.9%
same,cleaved PARP positive nuclei fraction,[8],85.4%
same,cleaved PARP positive nuclei fraction,[9],105%
"CN(c1ncccc1CNc1nc(Nc2ccc3c(c2)CC(=O)N3)ncc1C(F)(F)F)S(C)(=O)=O + CC(=O)c1c(C)c2cnc(Nc3ccc(N4CCNCC4)cn3)nc2n(C2CCCC2)c1=O [palbociclib] (first compound 0.08 µM, partner dose 0.04 µM)",cleaved PARP positive nuclei fraction,[1],39.6%
same,cleaved PARP positive nuclei fraction,[2],218%
same,cleaved PARP positive nuclei fraction,[3],497%
same,cleaved PARP positive nuclei fraction,[4],108%
same,cleaved PARP positive nuclei fraction,[5],44.7%
same,cleaved PARP positive nuclei fraction,[7],123%
same,cleaved PARP positive nuclei fraction,[8],72.6%
same,cleaved PARP positive nuclei fraction,[9],94.4%

# Shown with tabs: entries from further up.
compound	measurement	setting	value
NC1(c2ccc(-c3nc4ccn5c(=O)[nH]nc5c4cc3-c3ccccc3)cc2)CCC1 + Cc1cc(N2CCOCC2)cc2[nH]c(-c3c(NC[C@@H](O)c4cccc(Cl)c4)cc[nH]c3=O)nc12 [BMS536924] (first compound 0.4 µM, partner dose 0.2 µM)	cleaved PARP positive nuclei fraction	[5]	180%
CCN(CC)CCNC(=O)c1c(C)[nH]c(/C=C2\C(=O)Nc3ccc(F)cc32)c1C [sunitinib] + COc1cc2ncnc(Nc3ccc(Oc4ccccc4)cc3)c2cc1OC [SrcI1] (first compound 0.4 µM, partner dose 2 µM)	cleaved PARP positive nuclei fraction	[2]	200%
same	cleaved PARP positive nuclei fraction	[5]	61.6%
same	cleaved PARP positive nuclei fraction	[8]	16.8%
same	cleaved PARP positive nuclei fraction	[9]	155%
Cn1cnc2c(F)c(Nc3ccc(Br)cc3Cl)c(C(=O)NOCCO)cc21 [selumetinib] + O=C1NC(=O)/C(=C/c2ccc(-c3ccc(F)cc3O)o2)S1 [AS252424] (first compound 0.015 µM, partner dose 1 µM)	cleaved PARP positive nuclei fraction	[4]	91.2%
same	cleaved PARP positive nuclei fraction	[7]	118%
CS(=O)(=O)c1ccc(C(=O)Nc2ccc(Cl)c(-c3ccccn3)c2)c(Cl)c1 [vismodegib] + CN(NC(=O)CC(=O)NN(C)C(=S)c1ccccc1)C(=S)c1ccccc1 [STA4783] (first compound 1 µM, partner dose 0.006 µM)	cleaved PARP positive nuclei fraction	[4]	74.7%
same	cleaved PARP positive nuclei fraction	[9]	168%
C[C@@H](N)c1ccc(C(=O)Nc2ccnc3[nH]ccc23)cc1 + O=C1NC(=O)/C(=C/c2ccc(-c3ccc(F)cc3O)o2)S1 [AS252424] (first compound 0.4 µM, partner dose 1 µM)	cleaved PARP positive nuclei fraction	[4]	1070%
CCCCCCCCc1ccc(CCC(N)(CO)CO)cc1 [fingolimod] + CC(C)(C)c1cnc(CSc2cnc(NC(=O)C3CCNCC3)s2)o1 [SNS-032] (first compound 2 µM, partner dose 0.01 µM)	cleaved PARP positive nuclei fraction	[3]	172%
same	cleaved PARP positive nuclei fraction	[8]	47.3%
same	cleaved PARP positive nuclei fraction	[9]	173%
C[C@@H](N)c1ccc(C(=O)Nc2ccnc3[nH]ccc23)cc1 + CCN(CC)CCNC(=O)c1c(C)[nH]c(/C=C2\C(=O)Nc3ccc(F)cc32)c1C [sunitinib] (first compound 0.4 µM, partner dose 0.4 µM)	cleaved PARP positive nuclei fraction	[1]	175%
same	cleaved PARP positive nuclei fraction	[7]	96.7%
same	cleaved PARP positive nuclei fraction	[9]	123%
COc1ccc(C2=N[C@@H](c3ccc(Cl)cc3)[C@@H](c3ccc(Cl)cc3)N2C(=O)N2CCNC(=O)C2)c(OC(C)C)c1 [Nutlin-3] + CCCCCCCCCCCC1=C(O)C(=O)C=C(O)C1=O [Embelin] (first compound 0.1 µM, partner dose 1.2 µM)	cleaved PARP positive nuclei fraction	[4]	93.5%
NC(=O)c1ccc(N(C(N)=O)c2c(F)cccc2F)nc1-c1ccc(F)cc1F + CS(=O)(=O)c1ccc(C(=O)Nc2ccc(Cl)c(-c3ccccn3)c2)c(Cl)c1 [vismodegib] (first compound 0.4 µM, partner dose 1 µM)	cleaved PARP positive nuclei fraction	[3]	32.8%
same	cleaved PARP positive nuclei fraction	[5]	57.2%
same	cleaved PARP positive nuclei fraction	[9]	105%
CN(c1ncccc1CNc1nc(Nc2ccc3c(c2)CC(=O)N3)ncc1C(F)(F)F)S(C)(=O)=O + CC(=O)c1c(C)c2cnc(Nc3ccc(N4CCNCC4)cn3)nc2n(C2CCCC2)c1=O [palbociclib] (first compound 0.08 µM, partner dose 0.04 µM)	cleaved PARP positive nuclei fraction	[7]	123%
